These are yes or no findings as the source states them, for the method shown. Binding seen in cells or lysates may run through a third protein. Some results given as binding are weak or reduced against the parent protein; the word gives no strength.
Target: T1, YTHDF2 (mouse (endogenous in primary mouse cardiomyocytes)) (UniProt Q91YT7)
T1 sequence: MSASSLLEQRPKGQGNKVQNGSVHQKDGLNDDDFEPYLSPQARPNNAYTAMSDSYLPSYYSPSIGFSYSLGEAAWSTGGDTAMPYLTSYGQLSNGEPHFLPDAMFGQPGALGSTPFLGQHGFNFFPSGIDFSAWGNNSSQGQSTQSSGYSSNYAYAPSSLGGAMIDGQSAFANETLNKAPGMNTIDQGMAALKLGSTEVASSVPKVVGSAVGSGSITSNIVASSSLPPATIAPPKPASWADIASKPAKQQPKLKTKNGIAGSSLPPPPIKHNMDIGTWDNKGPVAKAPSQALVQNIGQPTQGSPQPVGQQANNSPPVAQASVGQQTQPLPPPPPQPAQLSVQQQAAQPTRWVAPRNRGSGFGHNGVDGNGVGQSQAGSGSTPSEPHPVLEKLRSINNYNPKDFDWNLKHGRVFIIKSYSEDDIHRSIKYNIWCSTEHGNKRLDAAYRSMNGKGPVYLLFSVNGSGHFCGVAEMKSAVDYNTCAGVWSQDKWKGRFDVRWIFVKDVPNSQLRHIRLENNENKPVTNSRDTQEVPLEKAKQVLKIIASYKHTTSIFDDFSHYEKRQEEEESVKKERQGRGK
Assay: co-IP; lysate of primary cardiomyocytes treated with ISO (10 μmol/l) or DMSO for 24 h; immunoprecipitated with anti-YTHDF2 or rabbit IgG, protein A/G-agarose beads; Western blotting with anti-MYH7

By UniProt entry, the sequences of proteins in these tests, tags left out.
UniProt Q91Z83: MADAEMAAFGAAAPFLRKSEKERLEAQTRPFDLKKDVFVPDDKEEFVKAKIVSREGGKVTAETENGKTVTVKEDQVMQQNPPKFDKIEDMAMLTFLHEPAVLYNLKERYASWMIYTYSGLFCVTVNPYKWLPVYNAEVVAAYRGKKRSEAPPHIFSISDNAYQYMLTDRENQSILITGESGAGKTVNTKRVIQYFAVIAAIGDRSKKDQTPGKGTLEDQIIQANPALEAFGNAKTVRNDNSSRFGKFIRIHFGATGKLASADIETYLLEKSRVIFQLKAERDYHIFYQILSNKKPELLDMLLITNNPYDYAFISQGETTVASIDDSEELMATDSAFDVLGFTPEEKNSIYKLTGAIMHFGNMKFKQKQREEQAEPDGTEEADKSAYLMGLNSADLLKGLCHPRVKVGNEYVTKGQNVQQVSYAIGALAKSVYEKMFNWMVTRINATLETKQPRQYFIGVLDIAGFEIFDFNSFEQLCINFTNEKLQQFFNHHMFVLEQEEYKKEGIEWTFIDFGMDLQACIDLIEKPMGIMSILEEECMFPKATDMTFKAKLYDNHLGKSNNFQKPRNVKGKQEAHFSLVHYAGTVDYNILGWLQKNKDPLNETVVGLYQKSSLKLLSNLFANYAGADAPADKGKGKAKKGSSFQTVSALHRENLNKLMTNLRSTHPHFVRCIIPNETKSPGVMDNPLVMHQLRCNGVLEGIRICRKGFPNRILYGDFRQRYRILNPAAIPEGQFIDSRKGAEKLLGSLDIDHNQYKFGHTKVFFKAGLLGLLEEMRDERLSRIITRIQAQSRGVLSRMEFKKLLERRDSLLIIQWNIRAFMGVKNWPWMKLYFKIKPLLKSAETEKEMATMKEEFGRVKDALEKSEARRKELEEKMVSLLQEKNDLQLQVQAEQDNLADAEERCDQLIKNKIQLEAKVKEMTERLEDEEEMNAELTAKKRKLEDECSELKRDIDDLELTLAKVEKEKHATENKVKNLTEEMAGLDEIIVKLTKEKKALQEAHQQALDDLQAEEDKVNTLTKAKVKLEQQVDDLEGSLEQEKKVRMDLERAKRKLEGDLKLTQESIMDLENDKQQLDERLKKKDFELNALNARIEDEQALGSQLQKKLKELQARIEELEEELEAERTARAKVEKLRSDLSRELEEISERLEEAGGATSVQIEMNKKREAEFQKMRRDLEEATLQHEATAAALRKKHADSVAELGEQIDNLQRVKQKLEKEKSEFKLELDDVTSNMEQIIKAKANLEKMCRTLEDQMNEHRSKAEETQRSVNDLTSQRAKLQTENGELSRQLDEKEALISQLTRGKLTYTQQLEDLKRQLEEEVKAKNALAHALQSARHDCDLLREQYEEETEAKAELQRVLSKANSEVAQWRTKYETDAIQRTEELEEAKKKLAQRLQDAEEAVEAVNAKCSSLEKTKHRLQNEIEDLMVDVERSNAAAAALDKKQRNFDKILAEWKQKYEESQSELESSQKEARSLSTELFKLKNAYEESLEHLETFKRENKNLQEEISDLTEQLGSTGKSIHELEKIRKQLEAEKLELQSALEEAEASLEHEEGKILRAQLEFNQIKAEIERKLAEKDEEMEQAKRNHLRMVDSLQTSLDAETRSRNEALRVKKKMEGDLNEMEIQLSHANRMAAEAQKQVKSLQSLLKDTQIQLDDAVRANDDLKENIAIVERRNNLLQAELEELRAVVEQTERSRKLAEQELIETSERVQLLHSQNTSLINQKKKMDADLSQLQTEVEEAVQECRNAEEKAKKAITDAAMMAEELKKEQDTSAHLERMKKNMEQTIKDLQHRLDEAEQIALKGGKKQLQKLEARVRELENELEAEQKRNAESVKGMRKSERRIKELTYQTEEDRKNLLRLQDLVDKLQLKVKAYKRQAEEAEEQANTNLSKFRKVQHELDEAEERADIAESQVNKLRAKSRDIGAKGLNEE

- binding: binds
Substance: MYH7 (beta-myosin heavy chain) (from UniProt Q91Z83 1-1935)
